We go through one substance from patent US20100098682A1.

The chains behind the UniProt entries cited, without tags or fusion partners. Residues count along the entry.
UniProt P05067, residues 672-770: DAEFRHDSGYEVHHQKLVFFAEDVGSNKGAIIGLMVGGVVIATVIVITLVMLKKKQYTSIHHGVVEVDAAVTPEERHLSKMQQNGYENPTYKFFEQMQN

The assay has as its target C99, COOH-terminal fragment of 99 amino acids of APP (human) (UniProt P05067). Description: αFLAG co-immunoprecipitation from co-transfected HeLa cell lysates, western blot.

These are yes or no findings as the source states them, for the method shown. In cells and extracts the contact can be indirect. Some binding calls cover weakened binding; strength is not graded here.

“FLAG-BRI2 (full length BRI2, amino acids 1 to 266, N-terminal FLAG tag) (from UniProt A5A6H8 1-266)”: the binding result is recorded as “binds”.
